Like-named read-outs stand apart in the source and are kept apart here. For at least one compound, name, drawing or mass did not settle the structure.
Test system: Sp2/0 myeloma
Method: BALB/c male mice, aged 6-8 weeks and weighing ˜18-25 g, are procured from the Central Animal Facility, Indian Institute of Science, Bangalore. All mice received care according to institutional guidelines and are maintained under controlled conditions and fed with a standard diet.
Sp2/0 cells, a myeloma cell line, is grown in T175 flasks in IMDM complete medium supplemented with 10% fetal bovine serum, 2 mM L-glutamine, 100 U/ml penicillin, 100 μg/ml streptomycin, 10% nonessential amino acids, 10% HEPES, 10% sodium pyruvate, 50 μM 2-ME, 10 μg/ml gentamycin in a humidified atmosphere of 5% CO2 at 37° C.
An experimental syngeneic tumor model using the myeloma, Sp2/0 in BALB/c mice is studied. […] Different amounts of cells are washed and injected s.c. to establish the cell numbers that need to be injected to reproducibly display solid tumors within two weeks. Mice are sacrificed once the tumors reach a large size to avoid distress. Tumor volume is monitored on the mentioned days and calculated with the formula, V=a×b^2/2, where a is the longest and b is perpendicular to it, are measured on the surface of the tumor with vernier calipers.
BALB/c mice (5 per group) of 6 to 8 weeks of age are subcutaneously injected with Sp2/0 myeloma cells (˜10×10^6 cells/mouse). […]

In the case of `CC#C[C@]1(O)CC[C@H]2[C@@H]3CCC4=CC(=O)CCC4=C3[C@@H](c3ccc(N(C)C)cc3)C[C@@]21C` [RU486], the tumor volume (0.1, 1 or 5 mg/Kg body weight i.p. day 4, alone) is reported as “a slight reduction is observed in the initial days which are lost at later stages” and the tumor volume (MIP ~5×10^8 intradermal day 3 plus drug i.p. day 4 (Cyclophosphamide 15, Indomethacin 1 or RU486 1 mg/Kg b. wt.)) is reported as “did not reduce tumor volume further compared to Mycobacterium indicus pranii alone”.

— US8367075B2, “Synergistic combination and method thereof” (Indian Institute of Science, priority 2010, dated 2013)
